The record followed here is ChEMBL document CHEMBL3627690, “Scaffold-Hopping and Structure-Based Discovery of Potent, Selective, And Brain Penetrant N-(1H-Pyrazol-3-yl)pyridin-2-amine Inhibitors of Dual Leucine Zipper Kinase (DLK, MAP3K12)” (J Med Chem, 2015).

Data set [1] deals with human MDR1. The data set can be described thus: Efflux ratio of permeability across basolateral to apical over apical to basolateral side in MDCK cells transfected with human MDR1 at 5 uM by LC-MS/MS analysis. The note with it: dog.
Data set [2] relates to human MDR1. The data set can be described thus: Permeability across apical to basolateral side in MDCK cells transfected with human MDR1 at 5 uM by LC-MS/MS analysis. The following applies: dog.

Each structure is given as a SMILES string.

As to `N#Cc1ccnc(Nc2nc(C3CC3)c(C3CCN(C4COC4)CC3)s2)c1`, in the data set with human MDR1 [1], the efflux ratio at 5 µM is 0.94. In the data set on human MDR1 [2], this molecule gave an apical-to-basolateral permeability (Papp A→B) at 5 µM of 15.4 ×10⁻⁶ cm/s.

As a reminder, the efflux ratio is a quotient of directional permeabilities that is used to spot active efflux. Usually Papp A→B stands for how fast a substance crosses the layer from the apical side. Higher therefore signals fast passage.
